From article doi:10.1101/2025.08.01.668163
These are yes or no findings as the source states them, for the method shown. Binding seen in cells or lysates may run through a third protein. A yes stands for co-enrichment or nearness to the bait. Other partners may have been found. No binding means not detected with the bait.

Protein sequences, listed by entry. Tags and fused reporters are not part of them.
UniProt Q17RN3: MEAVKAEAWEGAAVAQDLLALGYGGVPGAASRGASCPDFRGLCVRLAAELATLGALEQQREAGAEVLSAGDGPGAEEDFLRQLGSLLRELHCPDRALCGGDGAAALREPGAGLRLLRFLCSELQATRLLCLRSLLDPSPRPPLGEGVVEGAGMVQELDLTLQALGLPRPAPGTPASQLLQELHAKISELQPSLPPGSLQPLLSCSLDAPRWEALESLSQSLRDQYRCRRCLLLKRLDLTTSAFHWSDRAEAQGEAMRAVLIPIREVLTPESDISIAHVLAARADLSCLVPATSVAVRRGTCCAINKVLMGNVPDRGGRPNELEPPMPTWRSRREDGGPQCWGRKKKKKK

How the values were obtained:
[1] = target: N-terminally FLAG-HA-tagged, full-length FAM98A (human) (UniProt Q8NCA5); test: affinity purification with mass spectrometry
[2] = target: N-terminally FLAG-HA-tagged, full-length FAM98C (human) (UniProt Q17RN3); test: affinity purification with mass spectrometry

binding [1]: no binding
binding [2]: no binding
B1: Ashwin (protein, UniProt Q9BVC5 1-232)
chain: MAGDVGGRSCTDSELLLHPELLSQEFLLLTLEQKNIAVETDVRVNKDSLTDLYVQHAIPLPQRDLPKNRWGKMMEKKREQHEIKNETKRSSTVDGLRKRPLIVFDGSSTSTSIKVKKTENGDNDRLKPPPQASFTSNAFRKLSNSSSSVSPLILSSNLPVNNKTEHNNNDAKQNHDLTHRKSPSGPVKSPPLSPVGTTPVKLKRAAPKEEAEAMNNLKPPQAKRKIQHVTWP
